The other results are listed elsewhere or left out.
compound: C1=CC=C(C=C1)C2=NC(=C(N2)C3=CC=NC=C3)C4=CC(=C(C=C4)Cl)O; experiment: log2 fold change, soluble protein after heating vs DMSO (PISA); higher = thermal stabilisation; K562 lysate, 10 uM; active = over 0.2 and 3.5 SD of the protein, either way, in both replicates (recomputed)
Method in brief: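 Pellets of K562 cells were dounce-homogenised in PBS pH 7.4 with 1 mM MgCl2, and the crude extract was held at 1 mg/mL protein for a 30 min treatment with 10 μM compound. Aliquots were heated for 3 min over 48°C-58°C and pooled before NP-40 was added to 0.5% at 4°C. The supernatant from 21,000xg for 90 min was quantified by TMTpro 16plex LC-MS/MS with channel sums equalised. Values are reported from duplicates as log-two fold change in thermal stability relative to solvent controls.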

By UniProt entry, the sequences of proteins in these tests, tags left out. Where a name states a change or a piece, a line headed by the entry shows the natural chain unless it says otherwise.
UniProt P53621: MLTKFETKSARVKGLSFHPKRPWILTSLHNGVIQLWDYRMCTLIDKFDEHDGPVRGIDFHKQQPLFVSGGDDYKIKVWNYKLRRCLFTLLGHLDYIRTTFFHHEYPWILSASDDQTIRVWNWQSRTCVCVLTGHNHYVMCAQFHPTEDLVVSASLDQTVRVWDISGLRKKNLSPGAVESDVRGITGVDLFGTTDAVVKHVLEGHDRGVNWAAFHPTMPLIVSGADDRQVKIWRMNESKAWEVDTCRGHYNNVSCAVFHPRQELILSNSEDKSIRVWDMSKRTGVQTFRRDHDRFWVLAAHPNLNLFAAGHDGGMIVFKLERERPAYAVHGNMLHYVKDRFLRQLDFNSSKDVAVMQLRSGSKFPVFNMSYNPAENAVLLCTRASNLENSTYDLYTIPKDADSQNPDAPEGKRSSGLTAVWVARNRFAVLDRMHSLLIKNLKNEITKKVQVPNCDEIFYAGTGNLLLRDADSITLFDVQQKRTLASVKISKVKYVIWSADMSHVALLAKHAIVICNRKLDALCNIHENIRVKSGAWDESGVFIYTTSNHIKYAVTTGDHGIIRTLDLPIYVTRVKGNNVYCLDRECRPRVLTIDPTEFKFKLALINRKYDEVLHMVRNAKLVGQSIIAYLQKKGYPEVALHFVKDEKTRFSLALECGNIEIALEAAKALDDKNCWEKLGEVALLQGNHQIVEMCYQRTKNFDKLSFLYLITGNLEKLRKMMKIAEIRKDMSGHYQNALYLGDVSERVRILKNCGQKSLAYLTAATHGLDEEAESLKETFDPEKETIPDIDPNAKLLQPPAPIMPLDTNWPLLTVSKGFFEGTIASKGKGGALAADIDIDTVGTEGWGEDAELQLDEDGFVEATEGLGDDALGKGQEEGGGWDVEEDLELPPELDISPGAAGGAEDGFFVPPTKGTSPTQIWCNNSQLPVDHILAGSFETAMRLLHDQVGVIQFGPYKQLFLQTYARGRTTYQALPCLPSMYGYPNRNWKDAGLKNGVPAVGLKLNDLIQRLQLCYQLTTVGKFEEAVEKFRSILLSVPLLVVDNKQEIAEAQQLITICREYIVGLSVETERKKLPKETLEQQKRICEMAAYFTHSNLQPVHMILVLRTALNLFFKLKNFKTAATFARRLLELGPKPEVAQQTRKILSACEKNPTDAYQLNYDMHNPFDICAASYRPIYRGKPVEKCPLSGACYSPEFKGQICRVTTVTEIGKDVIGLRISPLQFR
UniProt Q9NQ92: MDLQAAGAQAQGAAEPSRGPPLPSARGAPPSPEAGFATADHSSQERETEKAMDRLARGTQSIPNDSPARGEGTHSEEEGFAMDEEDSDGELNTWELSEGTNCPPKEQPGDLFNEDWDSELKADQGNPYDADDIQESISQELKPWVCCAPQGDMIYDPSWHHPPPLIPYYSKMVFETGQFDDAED
UniProt Q9Y6N1: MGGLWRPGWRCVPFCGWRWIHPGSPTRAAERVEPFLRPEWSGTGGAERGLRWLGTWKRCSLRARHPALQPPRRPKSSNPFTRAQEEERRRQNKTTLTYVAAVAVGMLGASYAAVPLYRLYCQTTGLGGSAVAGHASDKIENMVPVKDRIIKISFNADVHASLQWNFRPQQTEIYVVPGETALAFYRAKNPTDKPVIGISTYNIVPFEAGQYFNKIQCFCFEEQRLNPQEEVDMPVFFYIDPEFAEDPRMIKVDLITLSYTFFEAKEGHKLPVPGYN
UniProt A5YKK6, whole entry, looked up: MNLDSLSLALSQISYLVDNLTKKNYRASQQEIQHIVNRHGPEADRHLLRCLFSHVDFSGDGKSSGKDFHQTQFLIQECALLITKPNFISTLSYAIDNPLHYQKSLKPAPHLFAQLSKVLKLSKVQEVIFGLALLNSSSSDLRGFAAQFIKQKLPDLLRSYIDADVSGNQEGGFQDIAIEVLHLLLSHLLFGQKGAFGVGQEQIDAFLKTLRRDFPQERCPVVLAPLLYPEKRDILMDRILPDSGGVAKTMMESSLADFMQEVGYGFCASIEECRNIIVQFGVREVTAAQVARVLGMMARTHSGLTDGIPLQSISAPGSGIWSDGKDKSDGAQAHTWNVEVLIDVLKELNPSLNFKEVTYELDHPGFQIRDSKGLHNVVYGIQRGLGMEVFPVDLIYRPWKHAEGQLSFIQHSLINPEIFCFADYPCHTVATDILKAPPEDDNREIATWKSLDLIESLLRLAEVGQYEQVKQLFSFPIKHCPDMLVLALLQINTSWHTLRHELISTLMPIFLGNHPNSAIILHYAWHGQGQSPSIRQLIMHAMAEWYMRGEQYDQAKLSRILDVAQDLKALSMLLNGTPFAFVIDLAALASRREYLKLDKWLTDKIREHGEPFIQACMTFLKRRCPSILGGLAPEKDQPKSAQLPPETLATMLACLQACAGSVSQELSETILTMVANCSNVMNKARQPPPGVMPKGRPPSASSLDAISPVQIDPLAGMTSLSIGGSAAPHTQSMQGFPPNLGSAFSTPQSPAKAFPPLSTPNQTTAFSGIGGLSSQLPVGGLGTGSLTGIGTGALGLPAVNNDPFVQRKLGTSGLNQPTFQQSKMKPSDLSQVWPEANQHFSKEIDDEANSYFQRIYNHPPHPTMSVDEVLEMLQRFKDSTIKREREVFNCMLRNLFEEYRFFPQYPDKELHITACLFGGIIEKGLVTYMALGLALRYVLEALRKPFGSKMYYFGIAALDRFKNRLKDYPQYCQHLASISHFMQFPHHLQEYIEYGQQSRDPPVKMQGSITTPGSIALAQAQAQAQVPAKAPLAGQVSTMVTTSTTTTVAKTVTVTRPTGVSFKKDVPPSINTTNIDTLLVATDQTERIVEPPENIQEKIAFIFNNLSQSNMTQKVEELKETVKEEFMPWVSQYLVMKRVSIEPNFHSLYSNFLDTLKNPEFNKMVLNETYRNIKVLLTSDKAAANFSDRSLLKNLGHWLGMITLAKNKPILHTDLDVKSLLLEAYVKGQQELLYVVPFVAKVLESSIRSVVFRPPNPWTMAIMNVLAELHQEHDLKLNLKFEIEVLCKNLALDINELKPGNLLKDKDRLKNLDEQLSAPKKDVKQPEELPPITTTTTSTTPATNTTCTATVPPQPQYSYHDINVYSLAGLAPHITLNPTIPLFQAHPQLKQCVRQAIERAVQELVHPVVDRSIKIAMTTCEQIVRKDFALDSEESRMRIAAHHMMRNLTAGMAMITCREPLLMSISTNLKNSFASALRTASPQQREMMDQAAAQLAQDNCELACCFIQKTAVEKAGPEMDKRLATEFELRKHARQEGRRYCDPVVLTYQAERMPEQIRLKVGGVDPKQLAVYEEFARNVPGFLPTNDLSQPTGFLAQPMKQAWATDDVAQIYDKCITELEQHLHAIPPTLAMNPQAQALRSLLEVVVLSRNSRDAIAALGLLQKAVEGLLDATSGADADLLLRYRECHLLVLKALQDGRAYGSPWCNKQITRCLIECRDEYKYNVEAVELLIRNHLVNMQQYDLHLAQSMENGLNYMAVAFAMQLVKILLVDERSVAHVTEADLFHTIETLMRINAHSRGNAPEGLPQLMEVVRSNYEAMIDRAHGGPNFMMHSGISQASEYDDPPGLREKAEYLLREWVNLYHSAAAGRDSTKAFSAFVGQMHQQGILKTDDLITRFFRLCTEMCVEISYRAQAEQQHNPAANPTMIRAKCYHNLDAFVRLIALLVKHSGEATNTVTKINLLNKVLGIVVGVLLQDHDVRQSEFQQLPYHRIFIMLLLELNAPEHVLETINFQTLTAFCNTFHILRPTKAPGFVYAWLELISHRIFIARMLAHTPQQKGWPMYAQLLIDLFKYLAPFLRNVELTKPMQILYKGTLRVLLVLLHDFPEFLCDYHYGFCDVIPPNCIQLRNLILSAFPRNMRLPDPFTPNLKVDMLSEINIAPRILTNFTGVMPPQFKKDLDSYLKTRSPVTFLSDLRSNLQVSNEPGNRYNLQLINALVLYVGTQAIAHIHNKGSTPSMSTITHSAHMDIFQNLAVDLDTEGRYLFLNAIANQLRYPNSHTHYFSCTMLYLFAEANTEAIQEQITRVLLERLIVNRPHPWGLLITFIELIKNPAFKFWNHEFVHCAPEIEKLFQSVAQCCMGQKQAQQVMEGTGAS
UniProt Q49B96: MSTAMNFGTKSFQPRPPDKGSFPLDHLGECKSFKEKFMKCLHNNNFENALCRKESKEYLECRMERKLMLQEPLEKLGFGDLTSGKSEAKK
UniProt P61923: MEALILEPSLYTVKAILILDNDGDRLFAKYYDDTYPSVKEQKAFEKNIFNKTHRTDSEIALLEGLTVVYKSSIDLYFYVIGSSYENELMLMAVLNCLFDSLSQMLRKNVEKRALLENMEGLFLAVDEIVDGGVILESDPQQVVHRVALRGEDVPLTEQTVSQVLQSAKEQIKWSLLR
UniProt Q9H9Q2: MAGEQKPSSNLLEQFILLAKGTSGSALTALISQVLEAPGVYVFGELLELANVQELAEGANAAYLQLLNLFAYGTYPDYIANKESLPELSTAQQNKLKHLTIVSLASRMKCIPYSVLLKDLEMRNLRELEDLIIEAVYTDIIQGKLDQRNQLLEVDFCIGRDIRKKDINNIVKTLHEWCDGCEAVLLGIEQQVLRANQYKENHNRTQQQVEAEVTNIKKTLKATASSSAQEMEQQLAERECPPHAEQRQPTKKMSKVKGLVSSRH
UniProt Q9NZJ6: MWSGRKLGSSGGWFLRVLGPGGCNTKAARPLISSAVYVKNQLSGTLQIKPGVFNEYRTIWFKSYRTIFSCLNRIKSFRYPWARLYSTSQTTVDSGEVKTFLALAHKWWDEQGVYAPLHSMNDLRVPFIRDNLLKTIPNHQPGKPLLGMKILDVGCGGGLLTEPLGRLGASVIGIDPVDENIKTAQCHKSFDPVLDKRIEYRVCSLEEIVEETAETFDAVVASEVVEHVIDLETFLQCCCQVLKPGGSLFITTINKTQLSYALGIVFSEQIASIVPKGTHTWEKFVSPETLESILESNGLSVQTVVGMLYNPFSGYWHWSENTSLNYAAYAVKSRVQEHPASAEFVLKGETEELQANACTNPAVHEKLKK
UniProt Q8IWV2: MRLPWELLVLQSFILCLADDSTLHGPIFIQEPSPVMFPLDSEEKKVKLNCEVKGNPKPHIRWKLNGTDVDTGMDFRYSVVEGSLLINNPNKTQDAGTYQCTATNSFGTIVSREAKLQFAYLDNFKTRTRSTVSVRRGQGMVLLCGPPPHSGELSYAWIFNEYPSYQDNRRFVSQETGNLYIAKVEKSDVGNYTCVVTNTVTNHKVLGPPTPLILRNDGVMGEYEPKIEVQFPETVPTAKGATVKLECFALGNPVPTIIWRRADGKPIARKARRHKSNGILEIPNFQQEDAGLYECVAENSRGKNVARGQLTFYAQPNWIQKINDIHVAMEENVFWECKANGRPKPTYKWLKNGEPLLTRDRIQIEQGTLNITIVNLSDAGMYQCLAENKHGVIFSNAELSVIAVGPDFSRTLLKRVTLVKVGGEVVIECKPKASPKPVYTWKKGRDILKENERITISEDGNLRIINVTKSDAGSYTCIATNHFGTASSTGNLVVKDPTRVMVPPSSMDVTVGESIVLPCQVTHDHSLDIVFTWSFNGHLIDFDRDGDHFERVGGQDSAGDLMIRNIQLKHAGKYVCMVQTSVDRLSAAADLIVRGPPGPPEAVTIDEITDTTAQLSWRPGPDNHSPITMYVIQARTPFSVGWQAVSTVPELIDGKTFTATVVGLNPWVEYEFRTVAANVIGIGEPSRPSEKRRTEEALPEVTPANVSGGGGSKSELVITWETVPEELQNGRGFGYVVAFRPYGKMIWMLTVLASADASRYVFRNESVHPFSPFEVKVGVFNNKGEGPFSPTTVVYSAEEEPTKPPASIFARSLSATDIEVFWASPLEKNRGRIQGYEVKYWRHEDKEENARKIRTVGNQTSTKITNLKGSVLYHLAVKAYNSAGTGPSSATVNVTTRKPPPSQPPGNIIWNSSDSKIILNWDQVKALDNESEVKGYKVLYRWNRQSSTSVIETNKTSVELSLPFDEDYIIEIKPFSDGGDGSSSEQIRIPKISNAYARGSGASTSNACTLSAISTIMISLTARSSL
UniProt Q9BRF8, whole entry, looked up: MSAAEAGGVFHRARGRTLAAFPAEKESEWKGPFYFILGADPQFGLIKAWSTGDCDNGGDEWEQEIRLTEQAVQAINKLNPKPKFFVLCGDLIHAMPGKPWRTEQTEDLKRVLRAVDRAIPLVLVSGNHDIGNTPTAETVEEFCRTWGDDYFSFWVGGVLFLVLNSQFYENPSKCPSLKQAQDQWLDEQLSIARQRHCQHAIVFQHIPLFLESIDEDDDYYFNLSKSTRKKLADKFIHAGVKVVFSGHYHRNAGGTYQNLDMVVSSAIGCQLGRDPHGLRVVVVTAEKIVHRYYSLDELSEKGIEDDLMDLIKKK
UniProt O95639, whole entry, looked up: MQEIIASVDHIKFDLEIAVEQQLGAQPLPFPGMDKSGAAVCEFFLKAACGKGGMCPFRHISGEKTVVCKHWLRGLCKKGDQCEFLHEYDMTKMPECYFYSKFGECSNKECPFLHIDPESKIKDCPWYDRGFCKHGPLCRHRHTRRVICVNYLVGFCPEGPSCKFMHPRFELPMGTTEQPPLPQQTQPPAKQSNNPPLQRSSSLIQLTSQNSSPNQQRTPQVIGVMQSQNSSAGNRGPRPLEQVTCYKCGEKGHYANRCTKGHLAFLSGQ

log2 fold change, inactive:
CNOT10 (UniProt Q9H9A5) -0.027
COPA isoform 2 (UniProt P53621) -0.001
COPS3 (UniProt Q9UNS2) 0.002
COX7A2 (UniProt P14406) -0.017
CNOT6 (UniProt Q9ULM6) -0.011
CNOT7 (UniProt Q9UIV1) -0.017
CNOT3 (UniProt O75175) -0.001
COX5A (UniProt P20674) -0.024
COPRS (UniProt Q9NQ92) 0.027
COQ7 (UniProt Q99807) -0.008
COTL1 (UniProt Q14019) 0
COX11 (UniProt Q9Y6N1) 0.026
CRADD (UniProt P78560) 0.051
COMMD1 (UniProt Q8N668) -0.057
CNOT1 (UniProt A5YKK6) -0.009
CPSF7 isoform 3 (UniProt Q8N684) -0.035
COMTD1 (UniProt Q86VU5) -0.008
COX18 (UniProt Q8N8Q8) -0.028
COX19 (UniProt Q49B96) 0.007
COPZ1 isoform 4 (UniProt P61923) -0.006
CPSF1 (UniProt Q10570) 0.013
CNPY2 (UniProt Q9Y2B0) -0.01
CNST (UniProt Q6PJW8) 0.007
COA1 (UniProt Q9GZY4) 0.012
COPS7B (UniProt Q9H9Q2) 0.004
COQ3 (UniProt Q9NZJ6) 0.008
CNTN4 (UniProt Q8IWV2) 0.046
COX4I1 (UniProt P13073) 0.005
CPPED1 (UniProt Q9BRF8) -0.024
COPS4 (UniProt Q9BT78) 0.002
CPSF4 (UniProt O95639) 0.034
COMMD10 (UniProt Q9Y6G5) -0.032
CPD (UniProt O75976) 0
CORO1C isoform 3 (UniProt Q9ULV4) -0.007
CNOT4 isoform 6 (UniProt O95628) -0.035
COMMD9 (UniProt Q9P000) 0.013
COL18A1 (UniProt P39060) 0.042
CPEB4 (UniProt Q17RY0) -0.034
COX15 (UniProt Q7KZN9) -0.052
COX6A1 (UniProt P12074) -0.021

Retrieved one by one from above (two):
log2 fold change, inactive:
CNOT10 (UniProt Q9H9A5) -0.027
CNPY2 (UniProt Q9Y2B0) -0.01
